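Methionyl-tRNA synthetase (putative), Leishmania donovani (UniProt E9BF75). Primary screen of methionyl-tRNA synthetase; the read-out is not stated. The test concentration is not given. Values are per cent inhibition. About 68,000 compounds were tested under these conditions; 0.035% (about 24) showed 50% or more at least once.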

Amino acid sequences for entries named in this document (tags omitted).
UniProt E9BF75, entry or part of it: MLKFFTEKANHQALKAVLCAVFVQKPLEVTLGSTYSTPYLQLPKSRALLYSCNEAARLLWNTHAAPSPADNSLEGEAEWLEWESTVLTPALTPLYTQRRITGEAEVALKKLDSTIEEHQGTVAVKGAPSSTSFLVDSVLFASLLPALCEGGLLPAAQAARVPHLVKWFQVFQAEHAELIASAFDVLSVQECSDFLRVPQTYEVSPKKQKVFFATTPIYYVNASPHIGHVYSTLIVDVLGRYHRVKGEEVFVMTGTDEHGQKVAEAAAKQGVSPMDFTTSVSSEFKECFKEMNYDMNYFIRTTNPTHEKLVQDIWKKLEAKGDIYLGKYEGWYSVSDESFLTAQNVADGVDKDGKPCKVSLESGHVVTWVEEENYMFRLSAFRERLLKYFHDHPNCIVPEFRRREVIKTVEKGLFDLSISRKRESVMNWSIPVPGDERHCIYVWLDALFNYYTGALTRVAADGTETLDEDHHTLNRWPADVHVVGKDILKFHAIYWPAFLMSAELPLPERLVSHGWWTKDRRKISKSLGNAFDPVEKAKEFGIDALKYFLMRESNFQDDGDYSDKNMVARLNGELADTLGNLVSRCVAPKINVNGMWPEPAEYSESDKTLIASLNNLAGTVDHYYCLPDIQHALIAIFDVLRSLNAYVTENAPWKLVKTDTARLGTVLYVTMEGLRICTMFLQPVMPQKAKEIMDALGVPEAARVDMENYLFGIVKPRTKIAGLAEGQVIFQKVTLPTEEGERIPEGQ

All values are in %. The record does not define 0% and 100%; most values in the screen are far below 50% and negative numbers occur (in some assays of this library far below -100). Compounds were drawn at random from those tested, without regard to their results.

{"smiles": "CC(NC(=O)N(C)CCCOc1ccccc1)c1nncn1C", "stereo": "configuration not stated", "inhibition": 21.68}
{"smiles": "CCN1CCC(NC(=O)NCC(O)c2ccc(Cl)c(F)c2)CC1", "stereo": "configuration not stated", "inhibition": 7.258}
{"smiles": "Cn1ccnc1CN1CCC2(CC(=O)N(c3cccc(F)c3)C2)C1", "stereo": "configuration not stated", "inhibition": 18.63}
{"smiles": "Cc1ccc(C)c(S(=O)(=O)CCN2CCCC2Cn2cncn2)c1", "stereo": "configuration not stated", "inhibition": 8.527}
{"smiles": "CC(Cn1cncn1)NCc1nncn1C1CCCCC1", "stereo": "configuration not stated", "inhibition": 17.7}
{"smiles": "Cc1noc(C)c1CN(C)C(=O)NC1CCN(c2ncccn2)CC1", "inhibition": 11.66}
{"smiles": "O=C(Cc1ccccc1)N1CC[C@H]2[C@@H]1CCC(=O)N2Cc1ccncc1", "inhibition": 14.12}
{"smiles": "Cn1cc(CN2CCOC3(CCCN(C(=O)c4ccco4)C3)C2)cn1", "stereo": "configuration not stated", "inhibition": 4.724}
{"smiles": "Cc1noc(CN2CCOC(CN(C)C)C2)n1", "stereo": "configuration not stated", "inhibition": 7.302}
{"smiles": "C[C@@H]1C[C@H]2CN(C(=O)C3=CCCC3)C[C@H]2O1", "inhibition": 5.556}
{"smiles": "Cn1cc(C2CCCN2C(=O)COCCc2ccccc2)cn1", "stereo": "configuration not stated", "inhibition": 15.08}
{"smiles": "Cc1cccn2cc(C(=O)N3CCCN(CC4CC4)C(C(C)C)C3)nc12", "stereo": "configuration not stated", "inhibition": 21.88}
{"smiles": "N#Cc1c(CN2CCCCC2Cn2cncn2)cn2ccccc12", "stereo": "configuration not stated", "inhibition": 0}
{"smiles": "COc1ccc2c(c1)CCCN2Cc1nc(C)c(C)o1", "inhibition": 23.08}
{"smiles": "Cc1ccc(Cn2cc(Br)c(NS(C)(=O)=O)n2)cc1", "inhibition": 19.35}
{"smiles": "Cc1ncc(CNC(=O)CCc2cccs2)c(C2CCCN2C)n1", "stereo": "configuration not stated", "inhibition": 25.42}
{"smiles": "Cc1ccc(F)c(NC(=O)CCC(=O)N(C)Cc2nc(C)c[nH]2)c1", "inhibition": 14.37}
{"smiles": "Cc1ccoc1C(=O)N1Cc2c(CN3CCCCC3)nn(C)c2C1", "inhibition": 5}
{"smiles": "Cc1cc(CNC(=O)N2CCOC(c3ccccc3Cl)C2)no1", "stereo": "configuration not stated", "inhibition": 14.8}
{"smiles": "CC/C=C(\\C)CN1CCC(CNC(=O)c2ccc(=O)[nH]c2)CC1", "inhibition": 9.747}
{"smiles": "CCN(CC)CCCNCc1cc2cc(C)ccc2[nH]c1=O", "inhibition": 14.36}
{"smiles": "Cc1ccc(C(=O)N2CCCC(Cn3cc(C(C)(C)N)nn3)C2)s1", "stereo": "configuration not stated", "inhibition": 17}
{"smiles": "CCOc1nnc(CN2CCN(CCOC)C(CC)C2)s1", "stereo": "configuration not stated", "inhibition": 18.04}
{"smiles": "O=C(COc1cccnc1)N1CCCC(n2cccn2)C1", "stereo": "configuration not stated", "inhibition": 4.467}
{"smiles": "Cc1cccc2nc(C(=O)N3CCCC[C@]4(C)NC(=O)CC[C@H]34)cn12", "inhibition": 13.5}
{"smiles": "CC(C)C(C)NC(=O)Nc1cccc(OCC#N)c1", "stereo": "configuration not stated", "inhibition": 3.073}
{"smiles": "CC(C#N)CN(C)Cc1cc(Cl)cc2cccnc12", "stereo": "configuration not stated", "inhibition": 12.04}
{"smiles": "Cc1c(C(=O)NCCC(=O)N2CCCC2)cccc1-c1ccccn1", "inhibition": 8.669}
{"smiles": "Cc1ccsc1CN1C[C@@H]2COC[C@]2(CNC(=O)c2ccco2)C1", "inhibition": 11.54}
{"smiles": "CN(C)c1ccc(CCNC(=O)C2CCC(=O)N(C3CCCC3)C2)cc1", "stereo": "configuration not stated", "inhibition": 14.63}
{"smiles": "CCCn1c(O)nnc1SCC1OCCc2ccccc21", "stereo": "configuration not stated", "inhibition": 9.777}
{"smiles": "O=C1NC(C(=O)NCc2cccnc2Oc2ccccc2F)CO1", "stereo": "configuration not stated", "inhibition": 11.76}
{"smiles": "CCOCCN1CCN(c2ccc(C#N)cn2)CC1", "inhibition": 16.51}
{"smiles": "O=C(O)c1nnn(Cc2cccc(C(F)(F)F)c2)c1-c1ccncc1", "inhibition": 10.65}
{"smiles": "NC(=O)c1cnc(NC2CC2)nc1CCNC(=O)Cc1ccccc1", "inhibition": 3.675}
{"smiles": "CCC(c1nc(C(C)C)nn1-c1ccncc1C)n1cccn1", "stereo": "configuration not stated", "inhibition": 16.43}
{"smiles": "CC(C)c1nccn1CCn1cnc2ccsc2c1=O", "inhibition": 5.866}
{"smiles": "Nc1nc(CN2CCN(c3nccs3)CC2)cs1", "inhibition": 16.43}
{"smiles": "Cc1occc(=O)c1OCc1noc(C(=O)NC(C)C)n1", "inhibition": 10.03}
{"smiles": "CCCN(C(=O)c1cnccn1)c1nc2c(s1)CCc1c-2cnn1C", "inhibition": 18.23}
{"smiles": "CN(Cc1ccccc1)C1(C(=O)NC(CO)CO)Cc2ccccc2C1", "inhibition": 8.904}
{"smiles": "O=C(Cc1cccc2cccnc12)N1CCCN(c2cccnn2)CC1", "inhibition": 9.278}
{"smiles": "CCOc1ccccc1-n1c(CNC)n[nH]c1=O", "inhibition": 7.56}
{"smiles": "CCCS(=O)(=O)N1CCC2(CCCC(=O)N2C)CC1", "inhibition": 10}
{"smiles": "Cn1ccnc1CN1CCC(CCCc2ccccn2)(C(N)=O)CC1", "inhibition": 10.64}
{"smiles": "CCOC(=O)C1CN(S(=O)(=O)CC)Cc2ncn(CC)c21", "stereo": "configuration not stated", "inhibition": -4.261}
{"smiles": "CCS(=O)(=O)CCn1ccc(NC(=O)CCc2cccc(C)c2)n1", "inhibition": 19.05}
{"smiles": "Cc1cc(C)n(CC2(CNC(=O)C(c3ccc(F)cc3)N(C)C)CC2)n1", "stereo": "configuration not stated", "inhibition": 9.524}

Repeated from the top, 6 entries:

SMILES	inhibition
CC(NC(=O)N(C)CCCOc1ccccc1)c1nncn1C (configuration not stated)	21.68
CCN1CCC(NC(=O)NCC(O)c2ccc(Cl)c(F)c2)CC1 (configuration not stated)	7.258
Cn1ccnc1CN1CCC2(CC(=O)N(c3cccc(F)c3)C2)C1 (configuration not stated)	18.63
Cc1ccc(C)c(S(=O)(=O)CCN2CCCC2Cn2cncn2)c1 (configuration not stated)	8.527
CC(Cn1cncn1)NCc1nncn1C1CCCCC1 (configuration not stated)	17.7
Cc1noc(C)c1CN(C)C(=O)NC1CCN(c2ncccn2)CC1	11.66

The values are deposited in ChEMBL (CHEMBL3988442, “University of Dundee, Small-Polar-MMV Screening Library” (2021)).